From patent publication US10039846B2, “Compositions targeting bradykinin receptor B1 for medical imaging of cancer and other disorders” (BRITISH COLUMBIA CANCER AGENCY BRANCH, priority 2012, dated 2018)
Several values for one entry are separate records, joined by “and”; a condition that tells them apart may be missing. Identical values can stand only once. Like-named read-outs stand apart in the source and are kept apart here. Not every detail of the peptide structures is certain; ends, links or a residue may be inferred. At least one compound was matched to its structure with a doubt left. Where a SMILES comes first, the peptide text is derived from it. [ ]: non-standard residue; d: D form. The star is where a group is joined. NOTA = O=C(O)CN1CCN(CC(=O)O)CCN(CC(=O)*)CC1; Hyp = O=C(O)[C@@H]1C[C@@H](O)CN1; Cha = N[C@@H](CC1CCCCC1)C(=O)O; Ahx = NCCCCCC(=O)O

Molecular target: T1, B1R (Homo sapiens, UniProt P46663)
T1 sequence (P46663 1-353): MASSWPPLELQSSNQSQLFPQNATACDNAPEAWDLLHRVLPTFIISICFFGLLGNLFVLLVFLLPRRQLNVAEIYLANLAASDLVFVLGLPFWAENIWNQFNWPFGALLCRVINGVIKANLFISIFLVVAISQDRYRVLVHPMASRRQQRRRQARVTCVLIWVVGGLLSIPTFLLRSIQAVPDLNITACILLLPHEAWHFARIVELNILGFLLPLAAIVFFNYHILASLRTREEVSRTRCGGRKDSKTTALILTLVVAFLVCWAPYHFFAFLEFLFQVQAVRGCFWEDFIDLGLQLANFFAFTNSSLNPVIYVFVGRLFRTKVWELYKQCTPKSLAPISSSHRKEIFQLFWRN
Test: Competitive binding assay with 3H radioligand on CHO-K1 cell membranes over-expressing human B1R
Design: purchased Perkin Elmer Inc., Waltham, Mass; ES-091-M400UA; host or cells: CHO-K1 cells over-expressing human B1R (membrane preparation)
Method: The ability of the peptide and small molecule B1R targeting compounds to bind to B1R was assessed in competitive binding assay as described below.
Preparation of Cell Membranes: Ready to use cell membranes (12.5 μg/μL) from CHO-K1 cells over-expressing human B1R were obtained from Perkin Elmer Inc., Waltham, Mass. (cat. no. ES-091-M400UA). Binding using cell membranes from HEK293T::GFP::hB1R (from Example 3) was also tested. In the latter case, the membranes were prepared as follows: 90% confluent cells grown in large flask, T225, were detached and pelleted in a 50 mL conical tube using centrifuge at 1,200 rpm for 5 minutes. Afterward, cells were re-suspended in 20-30 mL of cold 50 mM Tris-HCl pH 7.4. Ice cold cells were disrupted for 15 seconds at 15,000 rpm with a Polytron PT3100 (Kinematica AG, Lucerne, Switzerland). The solution was aliquoted and centrifuged at 4° C. at 17,000×g for 30 minutes. The supernatant was discarded, and then the pellet was dissolved in 1-2 mL of cold salt solution containing 50 mM Tris-HCl pH 7.4 and 100 mM NaCl and incubated for 1 hour on ice. The cell membranes were pelleted by centrifugation at 4° C. at 17,000×g for 30 minutes and resuspended in 200-600 μL of 50 mM Tris-HCl pH 7.4. The cell membrane extract was stored at −80° C. Protein concentration was determined by Bradford assay (cat. no. R1271, Fermentas, Thermo Fisher Scientific, Burlington, ON). 50 ug of cell membranes per well was used for the competitive binding assay. […] Radio-labelled control was H-3 labelled [Leu^9,des-Arg^10] kallidin obtained either from American Radiolabelled Chemicals Inc, St. Louis, Mo.
Competitive Binding Assays: Assays were performed using 96-well MultiScreenHTS with glass fiber filter and PVDF support obtained from Millipore Corp, Billerica, Mass. (cat. no. MSFB N6B, lot no. R8AN42424). […] Radioactivity was counted using 1450 MicroBeta TriLux—Microplate Scintillation and Luminescence Counter (Perkin Elmer Inc., Shelton, Conn.).

## N=C(N)NCCC[C@H](NC(=O)[C@H](CCCCN)NC(=O)CCCCCNC(=O)CN(CCN(CC(=O)O)CC(=O)O)CCN(CC(=O)O)CC(=O)O)C(=O)N1CCC[C@H]1C(=O)N1C[C@H](O)C[C@H]1C(=O)NCC(=O)N[C@@H](CC1CCCCC1)C(=O)N[C@@H](CO)C(=O)N1CCC[C@H]1C(=O)N[C@H](Cc1ccccc1)C(=O)O [Peptide 2, DTPA-Ahx-Lys-Arg-Pro-Hyp-Gly-Cha-Ser-Pro-(D-Phe)]
Hot 12.5 nM BK-AG-ARC, CHO-K1 membranes, individual assays, read-out: Ki
  Ki: 131 nM
Average of individual competitive binding assays, read-out: Affinity Ki (nM) Average
  Ki: 131 nM

## CC(C)C[C@H](NC(=O)[C@@H]1CCCN1C(=O)[C@H](CO)NC(=O)[C@H](CC1CCCCC1)NC(=O)CNC(=O)[C@@H]1C[C@@H](O)CN1C(=O)[C@@H]1CCCN1C(=O)[C@H](CCCNC(=N)N)NC(=O)[C@H](CCCCN)NC(=O)CCCCCNC(=O)CN1CCN(CC(=O)O)CCN(CC(=O)O)CC1)C(=O)O [Peptide 18, Al-F-NOTA-Ahx-Lys-Arg-Pro-Hyp-Gly-Cha-Ser-Pro-Leu] ({NOTA-Ahx}-KRP[Hyp]G[Cha]SPL-OH)
Hot 4.6 nM BK-ANT-ARC, CHO-K1 membranes, individual assays, read-out: Ki
  Ki: 20.7 nM and 17.1 nM
